Assay results as given in PMC4118853, “Phage Orf Family Recombinases: Conservation of Activities and Involvement of the Central Channel in DNA Binding” (PLoS ONE, 2014).
No constants are given. Whether binding was seen depends on the method and setting. Some results given as binding are weak or reduced against the parent protein; the word gives no strength. Where a sequence is shown, tags or fusion partners need not be part of it.

Protein sequences, listed by entry. Tags and fused reporters are not part of them. Lines headed by an entry give the natural chain unless they say otherwise; changes in a name come on top.
UniProt P0AGE0: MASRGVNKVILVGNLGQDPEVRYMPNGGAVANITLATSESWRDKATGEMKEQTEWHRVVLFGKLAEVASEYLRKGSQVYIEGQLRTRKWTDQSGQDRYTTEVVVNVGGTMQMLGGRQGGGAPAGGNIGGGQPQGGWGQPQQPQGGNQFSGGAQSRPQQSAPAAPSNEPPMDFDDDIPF

How the values were obtained:
[1] = biological target: SSBΔ115-144 (E. coli SSB deletion mutant) (E. coli) (UniProt P0AGE0); experiment: ELISA; SSB wt or mutant (0.5 µg) bound to the microtitre plate in PBS, GST fusion added for 1 hr at 37°C, detected with HRP-anti-GST antibody, A620nm; both purified
[2] = compound: SSB fused to the GAL4 DNA-binding or activating domain (E. coli) (UniProt P0AGE0); experiment: two-hybrid; yeast two-hybrid, constructs fused to the GAL4 DNA-binding or activating domains, β-galactosidase activity (Miller units)
[3] = biological target: T1, MBP-Orf V106E (Bacteriophage lambda, UniProt P03765 1-146, V106E); experiment: static light scattering; 0.2 mg/ml protein in 100 mM Tris-HCl pH 7 at 25°C, Zetasizer µV; mass estimated for a spherical particle; both purified
T1 sequence: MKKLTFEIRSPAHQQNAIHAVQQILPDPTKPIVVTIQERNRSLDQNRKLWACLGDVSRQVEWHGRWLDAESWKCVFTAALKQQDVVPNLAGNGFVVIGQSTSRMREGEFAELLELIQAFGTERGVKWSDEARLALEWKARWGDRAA

B1: GST-YbcN (N-terminal glutathione S-transferase fusion of DLP12 YbcN) (natural protein, E. coli (cryptic prophage DLP12), UniProt Q47269 1-151, looked up)
chain: MNLSQDGIKLHRGNFTAIGRQIQPYLEEGKCFRMVLKPWREKRSLSQNALSHMWYSEISEYLISRGKTFATPAWVKDALKHTYLGYETKDLVDVVTGDITTIQSLRHTSDLDTGEMYVFLCKVEAWAMNIGCHLTIPQSCEFQLLRDKQEA
notes: YbcN (orf151), Orf-family protein of E. coli cryptic prophage DLP12; insert of pLB101 moved into pGEX-6P-1; predicted monomer of the GST fusion 44.6 kDa; higher oligomers are put down to dimer-dimer combinations; also called DLP12 GST-YbcN; source: E. coli BL21 Codon Plus carrying pLB108, purified (glutathione sepharose, heparin agarose, Q sepharose); not shown: GST, N-terminal, kept
- binding [1]: binds

B2: YbcN fused to the GAL4 DNA-binding or activating domain (protein, UniProt Q47269 1-151)
chain: MNLSQDGIKLHRGNFTAIGRQIQPYLEEGKCFRMVLKPWREKRSLSQNALSHMWYSEISEYLISRGKTFATPAWVKDALKHTYLGYETKDLVDVVTGDITTIQSLRHTSDLDTGEMYVFLCKVEAWAMNIGCHLTIPQSCEFQLLRDKQEA
- binding [2]: binds

B3: MBP-Orf V106E (natural protein, bacteriophage λ)
chain: MKKLTFEIRSPAHQQNAIHAVQQILPDPTKPIVVTIQERNRSLDQNRKLWACLGDVSRQVEWHGRWLDAESWKCVFTAALKQQDVVPNLAGNGFVVIGQSTSRMREGEFAELLELIQAFGTERGVKWSDEARLALEWKARWGDRAA
notes: Orf (NinB) of bacteriophage λ with V106E; Mutant derivative in pMALc2; Tends to form multimers or aggregates; source: E. coli BL21-AI carrying the pMALc2 construct, purified (amylose, heparin-agarose)
- binding [3]: binds
